Measured values from US7550468B2, “Theophylline and 3-isobutyl-1 methylxanthine based N-7 substituted derivatives displaying inhibitory activities on PDE-5 phospodiesterase” (priority 2000, dated 2009).
The match of structure and compound is tentative.

These molecules were tested against PDE5 (human platelet) (Homo sapiens, UniProt O76074) (assay: PDE5 (human platelet) inhibition). Conditions: read-out: PDE5 (human platelet) IC50.
Assay type: biochemical

IC50 [nM]	Compound
0.6	CC(C)Cn1c(=O)n(C)c(=O)c2c1ncn2CCNCc1cc(C(N)=O)ccc1O
0.6	CCOc1ccc(C(N)=O)cc1CNCCn1cnc2c1c(=O)n(C)c(=O)n2CC(C)C
0.3	CCOc1ccccc1CNCCn1cnc2c1c(=O)n(C)c(=O)n2CC(C)C
